Measured values from PMC7819943, “Rice protein-binding microarrays: a tool to detect cis-acting elements near promoter regions in rice”.
The list shows a part of the results.

Amino acid sequences for entries named in this document (tags omitted).
UniProt Q0JBA9, entry or part of it: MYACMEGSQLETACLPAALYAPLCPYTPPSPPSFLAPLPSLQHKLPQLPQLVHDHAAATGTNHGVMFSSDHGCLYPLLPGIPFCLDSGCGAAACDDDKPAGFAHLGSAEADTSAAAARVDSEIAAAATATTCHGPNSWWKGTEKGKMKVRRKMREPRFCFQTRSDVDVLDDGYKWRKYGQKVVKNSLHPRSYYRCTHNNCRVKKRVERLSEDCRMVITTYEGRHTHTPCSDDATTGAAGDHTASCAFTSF

Each sequence was assayed against OsWRKY34 (Oryza sativa, UniProt Q0JBA9 1-250) (assay: protein-binding microarray (RPBM); PBS, 2% BSA, 51.3 ng/ul salmon testes DNA, 50 uM zinc acetate, 200 nM TF, 25 C, 1 h; high values mean tight binding). Conditions: protein: recombinant; tags: N-terminal polyhistidine and DsRed monomer fusion (pET32a); label: CyDye5-dUTP incorporated in the synthesized complementary strand; 3' TTTTT single-stranded linker to array surface; dsDNA, one strand shown.
Procedure, shortened: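 The binding signal for each feature is its fluorescence intensity in arbitrary units. An Axon 4000B scanner was used to read a custom Agilent array that had been made double-stranded with Cy5-dUTP primer extension, blocked with 2% BSA, incubated at 25 °C for 1 h with 200 nM protein in PBS, 2% BSA, salmon testes DNA and 50 µM zinc acetate, and washed. The protein was an N-terminal polyhistidine–DsRed transcription factor fusion from E. coli BL21-CodonPlus, purified on Ni–NTA.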

Sequence	binding signal
CAGCTTCGACATTCACATAATATCATCTTTCGGAATTTGTCGGAGTCACCTAGTGCAG	8360 fluorescence intensity (a.u.)
GCCCACTACTACCACTTCGCCTCCTTCCCATCGAGGGCGACGGAGTCACCTAGTGCAG	8500 fluorescence intensity (a.u.)
ATATTTCTTTTCGTCGCTTTTATGTTCCTTTTCATGATCTCGGAGTCACCTAGTGCAG	8060 fluorescence intensity (a.u.)
CCCCACGACGCCCAGCTCGACCTCACCCGCGGCATCCCAACGGAGTCACCTAGTGCAG	9720 fluorescence intensity (a.u.)
CACCACCTCTCCACCGCTATAAAATCGCCAACTCGTCTTCCGGAGTCACCTAGTGCAG	8990 fluorescence intensity (a.u.)
TAACCCGTTCGCTATCCTTGTTTCTATTGCATTTTATCTCCGGAGTCACCTAGTGCAG	15400 fluorescence intensity (a.u.)
GCCTTTTCTTGACTCGGTGGTGGGAGGGGAATTTTCGTGACGGAGTCACCTAGTGCAG	27000 fluorescence intensity (a.u.)
GCGCTAGGGGCGGTATTTAATAGTACGTCTTATAGATGGTCGGAGTCACCTAGTGCAG	8060 fluorescence intensity (a.u.)
AGACATGGTTTTATTCTCTTTCCTCATTTATTCACTTGCCCGGAGTCACCTAGTGCAG	9650 fluorescence intensity (a.u.)
CCGACAGCTTGCTCGCCCGCACGCCGGCCTGATCGTTGACCGGAGTCACCTAGTGCAG	14100 fluorescence intensity (a.u.)
TAGCCAGAGACTATCCCGCCGTATTATTTCGACCAAATTCCGGAGTCACCTAGTGCAG	8090 fluorescence intensity (a.u.)
TTTTGGTAGCGGCCTTAATTAGTTCCAGATCTCCCAAGTGCGGAGTCACCTAGTGCAG	8980 fluorescence intensity (a.u.)
TCTCCGCCCGCTCGCCGCCGCCGCCGCCCGCGTCGACTCGCGGAGTCACCTAGTGCAG	8320 fluorescence intensity (a.u.)
GAGCAACATCACGCGAGGCATTTAACTATTTGTCACTTTTCGGAGTCACCTAGTGCAG	10400 fluorescence intensity (a.u.)
GGGGACCACCTATACATTTGTCGACAAATTTTCTACTAAACGGAGTCACCTAGTGCAG	9820 fluorescence intensity (a.u.)
CTCCACCCAAAACCCCTCGTCCTCTCTCCCGGCGACAATGCGGAGTCACCTAGTGCAG	8080 fluorescence intensity (a.u.)
GCTCCTTTGTTCCGGCTCTCTTGTCCCCTGCTGCCTTTTGCGGAGTCACCTAGTGCAG	9300 fluorescence intensity (a.u.)
CGCGCCCTCCGTCCCCAATCCTCCCGGCGAGCGGGACGAACGGAGTCACCTAGTGCAG	9080 fluorescence intensity (a.u.)
CGCCCCAATTTCCATGTACACGTAGCAGTTTCTCCCAAAACGGAGTCACCTAGTGCAG	10000 fluorescence intensity (a.u.)
CGGTTTGATAAACGACTGTAGCCAAAAGTACTTTTCAATCCGGAGTCACCTAGTGCAG	8220 fluorescence intensity (a.u.)
GTGGTATCACCGACCTTTGTTTCCCATTATTCAATACAAACGGAGTCACCTAGTGCAG	8920 fluorescence intensity (a.u.)

Sequence	binding signal
TACTTTGTGCAACCCATTACGCCACATGATGCTGCCTATACGGAGTCACCTAGTGCAG	8830 fluorescence intensity (a.u.)
CATGTCTTCCATTCCACAAACATTTCCATTGCTGCATAACCGGAGTCACCTAGTGCAG	10300 fluorescence intensity (a.u.)
TTGTTACTACATTTCCTGTACTATTTTACTGTCTGATTTACGGAGTCACCTAGTGCAG	8460 fluorescence intensity (a.u.)
AAACCCTCGCAACGTATCATGCCACATAATGCCACATAGACGGAGTCACCTAGTGCAG	11100 fluorescence intensity (a.u.)
GAATCATGAGTTGGTTGGGTTGGCATTAAACTGTTTTGAGCGGAGTCACCTAGTGCAG	12100 fluorescence intensity (a.u.)
CCTCCCTCCCATCCGATCCCGTCCGTCCATCTCCGATCCGCGGAGTCACCTAGTGCAG	8140 fluorescence intensity (a.u.)
CACCCTTCTTCTCACCCATTGACGGATGCCCTGGAGGTTTCGGAGTCACCTAGTGCAG	10400 fluorescence intensity (a.u.)
TCTCCACATCTCCCTCTCGCTTCCACGCCTCCTCCGCTTTCGGAGTCACCTAGTGCAG	9810 fluorescence intensity (a.u.)
AGCTCACCTCTTCAAACGTTGCATGCACTTGGTGTACACACGGAGTCACCTAGTGCAG	8030 fluorescence intensity (a.u.)
CTCCTCATCCTCATGGATGCGCCGGCTTCACCGTGCGCGTCGGAGTCACCTAGTGCAG	8930 fluorescence intensity (a.u.)
GCCGAGCCGCGTCCCTTTTTCCCATCGCCCACGCAGCGAGCGGAGTCACCTAGTGCAG	8920 fluorescence intensity (a.u.)
CCGCGACTCATTTATTAGCTCGTTTCTGTGAACATTCTAGCGGAGTCACCTAGTGCAG	9490 fluorescence intensity (a.u.)
ATCCACCACCACCACCACCACCGCTTCACTCGGCTGCGGCCGGAGTCACCTAGTGCAG	12600 fluorescence intensity (a.u.)
ATTCAGATCCTTAGTTGCTGGTTTTTCTTGTTCCTTTTCTCGGAGTCACCTAGTGCAG	8360 fluorescence intensity (a.u.)
ACTGCAATTTTGTACAATCTAGTTTTTGTCTATTTTTTATCGGAGTCACCTAGTGCAG	12100 fluorescence intensity (a.u.)
ATCTGCAAAATTCTTCATGCACCCTAGCTACTACCTTAGCCGGAGTCACCTAGTGCAG	8580 fluorescence intensity (a.u.)
AATTATTTCGATTCGAGATGGATTCTACTGCCCCGTTGACCGGAGTCACCTAGTGCAG	11600 fluorescence intensity (a.u.)
AACCCTTGATTCCTGCATCAACGTTAGGAATCCACTTCTCCGGAGTCACCTAGTGCAG	8120 fluorescence intensity (a.u.)
AGATGCCAATACTACGCCCACTTCCCGCGCGCTCTATATACGGAGTCACCTAGTGCAG	8320 fluorescence intensity (a.u.)
CCTAACATTTGTGCTTGTTTCTGTTCTGTCAAAAGGCTATCGGAGTCACCTAGTGCAG	8410 fluorescence intensity (a.u.)
TCTCTTTCTCGCCCGTTTCCCCACCACCACCACCACCACCCGGAGTCACCTAGTGCAG	8430 fluorescence intensity (a.u.)

Quoted from the listing:
Under binding signal, CATGTCTTCCATTCCACAAACATTTCCATTGCTGCATAACCGGAGTCACCTAGTGCAG is listed with 10300 fluorescence intensity (a.u.)
Under binding signal, CCTCCCTCCCATCCGATCCCGTCCGTCCATCTCCGATCCGCGGAGTCACCTAGTGCAG is listed with 8140 fluorescence intensity (a.u.)
Under binding signal, TCTCCACATCTCCCTCTCGCTTCCACGCCTCCTCCGCTTTCGGAGTCACCTAGTGCAG is listed with 9810 fluorescence intensity (a.u.)
